# The list shows a part of the results. Most values lie at the level of the controls, where differences are scatter.
# By UniProt entry, the sequences of proteins in these tests, tags left out. Where a name states a change or a piece, a line headed by the entry shows the natural chain unless it says otherwise.
# UniProt Q14191, whole entry: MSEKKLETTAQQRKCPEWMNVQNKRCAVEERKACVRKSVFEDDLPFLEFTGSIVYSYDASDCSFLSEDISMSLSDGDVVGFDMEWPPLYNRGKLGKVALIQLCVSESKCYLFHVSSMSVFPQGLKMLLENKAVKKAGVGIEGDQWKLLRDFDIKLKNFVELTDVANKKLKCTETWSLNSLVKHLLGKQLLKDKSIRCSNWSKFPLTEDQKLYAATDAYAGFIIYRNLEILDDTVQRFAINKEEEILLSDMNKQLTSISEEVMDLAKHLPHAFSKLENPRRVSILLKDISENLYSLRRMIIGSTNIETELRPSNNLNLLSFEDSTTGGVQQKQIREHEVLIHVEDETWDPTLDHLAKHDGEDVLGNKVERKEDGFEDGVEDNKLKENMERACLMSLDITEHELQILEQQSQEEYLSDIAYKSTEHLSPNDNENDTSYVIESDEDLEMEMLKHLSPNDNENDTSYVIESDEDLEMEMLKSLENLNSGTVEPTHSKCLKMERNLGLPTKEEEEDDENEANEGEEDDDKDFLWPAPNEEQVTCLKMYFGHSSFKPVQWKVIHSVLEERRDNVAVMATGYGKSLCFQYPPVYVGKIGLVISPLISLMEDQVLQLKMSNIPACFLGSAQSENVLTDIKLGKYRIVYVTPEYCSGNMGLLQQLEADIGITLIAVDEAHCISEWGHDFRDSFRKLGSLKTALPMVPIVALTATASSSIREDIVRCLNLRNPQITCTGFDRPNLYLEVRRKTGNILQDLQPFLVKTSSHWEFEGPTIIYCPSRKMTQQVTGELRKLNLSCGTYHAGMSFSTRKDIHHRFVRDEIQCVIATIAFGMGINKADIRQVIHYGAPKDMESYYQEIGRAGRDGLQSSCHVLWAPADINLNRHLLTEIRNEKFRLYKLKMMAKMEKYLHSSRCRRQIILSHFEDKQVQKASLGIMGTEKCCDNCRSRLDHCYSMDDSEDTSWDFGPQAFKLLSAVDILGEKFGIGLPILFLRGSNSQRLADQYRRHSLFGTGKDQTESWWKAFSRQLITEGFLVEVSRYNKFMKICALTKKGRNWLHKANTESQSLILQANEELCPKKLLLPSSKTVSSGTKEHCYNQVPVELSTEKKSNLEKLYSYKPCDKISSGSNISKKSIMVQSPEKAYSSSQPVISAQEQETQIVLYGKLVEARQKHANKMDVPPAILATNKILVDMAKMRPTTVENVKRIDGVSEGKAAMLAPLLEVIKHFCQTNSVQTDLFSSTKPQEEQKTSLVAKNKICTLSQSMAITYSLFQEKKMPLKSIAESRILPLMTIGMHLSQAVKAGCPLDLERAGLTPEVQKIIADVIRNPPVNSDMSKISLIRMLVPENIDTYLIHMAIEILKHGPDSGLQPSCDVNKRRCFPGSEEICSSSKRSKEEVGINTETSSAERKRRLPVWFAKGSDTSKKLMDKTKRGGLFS
# UniProt Q13277: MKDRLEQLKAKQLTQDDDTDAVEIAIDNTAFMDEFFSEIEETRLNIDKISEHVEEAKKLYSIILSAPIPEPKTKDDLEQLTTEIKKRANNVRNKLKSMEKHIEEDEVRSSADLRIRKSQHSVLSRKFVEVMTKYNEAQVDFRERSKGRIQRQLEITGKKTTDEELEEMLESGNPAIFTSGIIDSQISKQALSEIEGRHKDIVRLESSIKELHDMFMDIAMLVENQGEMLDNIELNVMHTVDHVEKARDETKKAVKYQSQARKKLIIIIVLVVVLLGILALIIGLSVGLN
# UniProt Q14643, whole entry: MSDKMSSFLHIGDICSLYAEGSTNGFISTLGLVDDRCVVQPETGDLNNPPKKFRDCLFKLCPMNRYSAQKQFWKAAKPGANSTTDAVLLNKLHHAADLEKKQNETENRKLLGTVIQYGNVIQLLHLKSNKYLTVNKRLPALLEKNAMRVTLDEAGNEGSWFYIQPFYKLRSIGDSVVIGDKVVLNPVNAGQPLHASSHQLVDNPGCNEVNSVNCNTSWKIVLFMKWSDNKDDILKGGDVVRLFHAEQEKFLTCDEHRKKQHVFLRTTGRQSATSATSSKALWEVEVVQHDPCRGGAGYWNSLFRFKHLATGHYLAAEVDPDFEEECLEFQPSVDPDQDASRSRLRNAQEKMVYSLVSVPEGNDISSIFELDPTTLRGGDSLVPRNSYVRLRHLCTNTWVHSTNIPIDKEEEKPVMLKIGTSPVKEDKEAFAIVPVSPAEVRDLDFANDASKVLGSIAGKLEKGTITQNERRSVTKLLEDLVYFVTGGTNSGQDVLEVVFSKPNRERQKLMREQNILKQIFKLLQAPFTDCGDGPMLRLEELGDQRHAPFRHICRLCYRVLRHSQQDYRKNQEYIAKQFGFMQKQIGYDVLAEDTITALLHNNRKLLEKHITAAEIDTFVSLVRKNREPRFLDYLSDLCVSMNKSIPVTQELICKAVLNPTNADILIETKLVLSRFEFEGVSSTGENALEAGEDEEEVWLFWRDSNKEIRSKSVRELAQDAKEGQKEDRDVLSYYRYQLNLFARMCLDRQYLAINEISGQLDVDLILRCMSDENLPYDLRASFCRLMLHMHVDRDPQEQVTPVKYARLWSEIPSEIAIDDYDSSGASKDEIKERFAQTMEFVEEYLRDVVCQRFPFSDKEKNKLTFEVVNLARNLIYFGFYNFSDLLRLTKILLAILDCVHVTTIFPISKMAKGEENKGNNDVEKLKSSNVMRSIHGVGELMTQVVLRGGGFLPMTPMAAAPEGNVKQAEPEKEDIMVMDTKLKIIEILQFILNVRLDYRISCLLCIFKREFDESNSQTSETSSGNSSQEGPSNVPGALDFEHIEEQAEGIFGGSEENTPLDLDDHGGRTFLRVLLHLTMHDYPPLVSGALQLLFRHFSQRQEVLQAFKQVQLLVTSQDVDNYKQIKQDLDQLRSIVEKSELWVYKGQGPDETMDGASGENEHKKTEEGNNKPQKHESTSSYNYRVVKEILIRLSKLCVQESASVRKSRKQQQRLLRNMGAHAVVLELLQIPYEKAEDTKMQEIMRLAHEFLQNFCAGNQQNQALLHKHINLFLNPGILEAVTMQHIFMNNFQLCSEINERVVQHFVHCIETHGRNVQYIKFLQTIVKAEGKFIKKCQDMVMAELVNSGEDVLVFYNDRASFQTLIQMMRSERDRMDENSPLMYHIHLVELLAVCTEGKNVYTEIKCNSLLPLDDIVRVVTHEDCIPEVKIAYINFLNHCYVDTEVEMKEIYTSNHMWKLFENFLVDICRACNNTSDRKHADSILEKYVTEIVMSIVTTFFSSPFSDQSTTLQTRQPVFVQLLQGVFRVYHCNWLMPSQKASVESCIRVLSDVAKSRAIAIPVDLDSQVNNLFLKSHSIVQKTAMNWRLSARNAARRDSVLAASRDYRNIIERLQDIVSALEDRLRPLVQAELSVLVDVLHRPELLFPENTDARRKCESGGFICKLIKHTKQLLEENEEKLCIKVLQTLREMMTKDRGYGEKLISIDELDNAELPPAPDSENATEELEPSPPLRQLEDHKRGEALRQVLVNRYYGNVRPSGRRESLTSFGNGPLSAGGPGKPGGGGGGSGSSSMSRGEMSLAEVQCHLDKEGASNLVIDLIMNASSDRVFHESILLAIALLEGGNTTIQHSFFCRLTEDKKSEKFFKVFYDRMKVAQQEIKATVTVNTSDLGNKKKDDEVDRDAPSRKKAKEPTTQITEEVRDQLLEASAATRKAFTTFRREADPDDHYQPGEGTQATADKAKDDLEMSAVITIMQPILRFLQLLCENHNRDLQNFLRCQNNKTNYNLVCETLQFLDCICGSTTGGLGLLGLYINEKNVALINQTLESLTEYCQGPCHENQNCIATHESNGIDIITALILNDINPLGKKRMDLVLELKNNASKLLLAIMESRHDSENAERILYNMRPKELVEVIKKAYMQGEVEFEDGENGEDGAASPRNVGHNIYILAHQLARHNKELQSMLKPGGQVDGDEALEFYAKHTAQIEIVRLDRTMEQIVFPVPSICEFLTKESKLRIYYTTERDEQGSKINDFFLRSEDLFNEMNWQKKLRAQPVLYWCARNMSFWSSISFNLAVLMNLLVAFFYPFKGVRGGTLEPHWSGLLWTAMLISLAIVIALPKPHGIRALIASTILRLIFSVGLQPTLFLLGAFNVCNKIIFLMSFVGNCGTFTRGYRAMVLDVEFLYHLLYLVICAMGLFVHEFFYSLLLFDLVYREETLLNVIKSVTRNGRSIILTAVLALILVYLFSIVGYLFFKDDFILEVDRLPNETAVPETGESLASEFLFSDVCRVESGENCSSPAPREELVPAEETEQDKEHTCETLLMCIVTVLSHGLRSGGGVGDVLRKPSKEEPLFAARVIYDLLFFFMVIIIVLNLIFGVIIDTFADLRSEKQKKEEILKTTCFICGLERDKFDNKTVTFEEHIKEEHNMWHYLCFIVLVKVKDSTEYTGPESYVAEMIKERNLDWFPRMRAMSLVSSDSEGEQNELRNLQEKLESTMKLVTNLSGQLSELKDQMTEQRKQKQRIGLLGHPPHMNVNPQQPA
# UniProt Q14679: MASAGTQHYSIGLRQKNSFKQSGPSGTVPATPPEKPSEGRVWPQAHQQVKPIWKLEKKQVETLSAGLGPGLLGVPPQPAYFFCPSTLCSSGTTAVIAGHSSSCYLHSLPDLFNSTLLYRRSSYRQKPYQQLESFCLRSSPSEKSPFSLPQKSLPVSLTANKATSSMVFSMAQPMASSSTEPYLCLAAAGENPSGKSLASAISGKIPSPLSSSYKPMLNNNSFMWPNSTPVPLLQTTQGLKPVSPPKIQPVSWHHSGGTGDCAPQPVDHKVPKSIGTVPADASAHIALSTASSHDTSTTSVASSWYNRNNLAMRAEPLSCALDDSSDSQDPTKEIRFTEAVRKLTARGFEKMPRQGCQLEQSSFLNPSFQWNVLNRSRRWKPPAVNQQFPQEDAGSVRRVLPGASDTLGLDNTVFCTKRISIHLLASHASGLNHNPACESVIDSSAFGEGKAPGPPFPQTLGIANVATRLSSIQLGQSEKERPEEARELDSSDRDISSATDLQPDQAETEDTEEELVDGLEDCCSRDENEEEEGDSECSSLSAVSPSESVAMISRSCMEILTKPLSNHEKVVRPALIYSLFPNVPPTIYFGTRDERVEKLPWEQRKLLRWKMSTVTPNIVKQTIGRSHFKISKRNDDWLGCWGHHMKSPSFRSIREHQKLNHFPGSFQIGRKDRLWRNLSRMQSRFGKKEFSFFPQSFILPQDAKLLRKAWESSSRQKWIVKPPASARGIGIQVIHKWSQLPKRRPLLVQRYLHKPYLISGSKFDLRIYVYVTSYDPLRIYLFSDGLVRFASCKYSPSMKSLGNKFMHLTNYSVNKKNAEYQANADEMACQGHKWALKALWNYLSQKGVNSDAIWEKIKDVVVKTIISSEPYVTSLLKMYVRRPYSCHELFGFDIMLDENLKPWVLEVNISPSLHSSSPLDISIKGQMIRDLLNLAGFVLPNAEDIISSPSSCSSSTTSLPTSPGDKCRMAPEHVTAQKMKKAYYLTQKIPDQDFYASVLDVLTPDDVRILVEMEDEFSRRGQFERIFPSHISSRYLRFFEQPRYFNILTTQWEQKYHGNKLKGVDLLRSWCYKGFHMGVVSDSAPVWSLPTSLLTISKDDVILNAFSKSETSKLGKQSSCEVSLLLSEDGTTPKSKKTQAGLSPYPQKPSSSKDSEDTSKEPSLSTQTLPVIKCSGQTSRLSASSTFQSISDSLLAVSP
# UniProt Q13424: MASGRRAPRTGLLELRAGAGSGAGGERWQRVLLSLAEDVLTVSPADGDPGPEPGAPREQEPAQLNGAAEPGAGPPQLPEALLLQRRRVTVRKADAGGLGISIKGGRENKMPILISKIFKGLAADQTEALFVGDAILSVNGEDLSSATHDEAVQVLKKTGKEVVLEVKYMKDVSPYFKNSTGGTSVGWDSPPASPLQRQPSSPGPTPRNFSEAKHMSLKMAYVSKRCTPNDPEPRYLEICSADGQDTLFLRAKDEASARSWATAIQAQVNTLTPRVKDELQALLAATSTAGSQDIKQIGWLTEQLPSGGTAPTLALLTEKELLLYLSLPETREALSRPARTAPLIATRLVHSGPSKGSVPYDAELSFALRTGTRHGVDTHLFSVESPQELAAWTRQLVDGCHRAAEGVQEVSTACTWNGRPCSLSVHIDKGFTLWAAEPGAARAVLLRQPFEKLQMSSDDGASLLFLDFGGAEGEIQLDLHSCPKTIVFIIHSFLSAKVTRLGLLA
# UniProt Q14192: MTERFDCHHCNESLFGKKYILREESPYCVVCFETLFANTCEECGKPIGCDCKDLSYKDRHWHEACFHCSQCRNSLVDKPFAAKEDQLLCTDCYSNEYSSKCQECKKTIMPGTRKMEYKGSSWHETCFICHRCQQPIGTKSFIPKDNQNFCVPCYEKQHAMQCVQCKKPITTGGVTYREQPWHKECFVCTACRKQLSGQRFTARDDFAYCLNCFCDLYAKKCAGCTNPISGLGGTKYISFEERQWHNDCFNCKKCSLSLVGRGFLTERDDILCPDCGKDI
# Compound: CN[C@@H]1C[C@H]2O[C@@](C)([C@@H]1OC)n1c3ccccc3c3c4c(c5c6ccccc6n2c5c31)C(=O)NC4 [staurosporine]
# Assay: log2 fold change of tryptic peptide abundance, ligand vs vehicle (limited proteolysis) (log2 ratio); higher = more trypsin-susceptible (destabilized)
# Settings: ligand concentration: 20 uM; sample: K562 cleared lysate; digestion: 4 min, 22 C (HT-PELSA RT4min, Orbitrap Astral)
row,Target,log2 fold change
1,"WRN (peptide sequence: NLEILDDTVQR, peptide start residue: 226) (UniProt Q14191)",0.366
2,"STX3 (peptide sequence: HIEEDEVR, peptide start residue: 101) (UniProt Q13277)",-0.318
3,"ITPR1 (peptide sequence: SIHGVGELMTQVVLR, peptide start residue: 933) (UniProt Q14643)",-0.774
4,"TTLL4 (peptide sequence: MSTVTPNIVK, peptide start residue: 611) (UniProt Q14679)",0.415
5,"BOP1 (peptide sequence: GDYLAVVLATQGHTQVLIHQLSR, peptide start residue: 546) (UniProt Q14137)",-0.393
6,"SNTA1 (peptide sequence: TIVFIIHSFLSAK, peptide start residue: 485) (UniProt Q13424)",0.24
7,"FHL2 (peptide sequence: GSSWHETCFICHR, peptide start residue: 119) (UniProt Q14192)",-0.866

# — the supplement of paper PMC12819154, “High-throughput peptide-centric local stability assay extends protein–ligand identification to membrane proteins, tissues and bacteria” (Nature Structural & Molecular Biology, 2025)
